# Experimental data reported in the supplement of paper PMC8728848.
# The other results are listed elsewhere or left out.
# B1: FimA-N2 (Actinomyces oris) (protein)
# chain: MHHHHHHSSGVDLGTENLYFQSNAWIYDVNVYPKNEAIDVDKTIQAQKLNGYGVGSLIKFPVESTAPTLDAKSFYKYFQLKDTLDERLSEVTATDVSLEGTPLQPTDYKVETKQQTVTVTFTAEGLKKIKAAPGKKVSAVFQGKVTKAGNGAITNRAQVISDTLYAEQPPTPETPPTDPENPPTSDEVISRWGDLSIKKVDTHQQGQTKA
# Experiments:
# Assay in all cases: glycan array binding signal (z-score within array); higher = stronger binding
# Settings in all cases: glycan notation: IUPAC condensed, linker removed
# [1] = target: Gal(b1-4)GlcNAc(b1-2)[Gal(b1-4)GlcNAc(b1-6)]Man(a1-6)[GlcNAc(b1-4)][Gal(b1-4)GlcNAc(b1-2)Man(a1-3)]Man(b1-4)GlcNAc(b1-4)GlcNAc
# Outline: (§1)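 Glycan array binding is given as a within-array Z-score, which can be read as non-binding when negative. The arrays, 3228 of them, came from the Consortium for Functional Glycomics database and were retained only where the protein sequence was available. Z-scores were averaged across arrays of the same protein sequence at different concentrations or buffers and across linkers.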
# [2] = target: Gal(b1-4)GlcNAc(b1-2)[Gal(b1-4)GlcNAc(b1-6)]Man(a1-6)[GlcNAc(b1-4)][Gal(b1-4)GlcNAc(b1-2)[Gal(b1-4)GlcNAc(b1-4)]Man(a1-3)]Man(b1-4)GlcNAc(b1-4)[Fuc(a1-6)]GlcNAc
# Outline: as §1
# [3] = target: Gal(b1-4)GlcNAc(b1-3)Gal(b1-3)GalNAc
# Outline: as §1
# [4] = target: Gal(b1-4)GlcNAc(b1-3)Gal(b1-3)GlcNAc
# Outline: as §1
# [5] = target: Gal(b1-4)GlcNAc(b1-3)Gal(b1-4)Glc
# Outline: as §1
# [6] = target: Gal(b1-4)GlcNAc(b1-3)Gal(b1-4)GlcNAc
# Outline: as §1
# [7] = target: Gal(b1-4)GlcNAc(b1-3)Gal(b1-4)GlcNAc(b1-2)Man(a1-3)[Gal(b1-4)GlcNAc(b1-3)Gal(b1-4)GlcNAc(b1-2)Man(a1-6)]Man(b1-4)GlcNAc(b1-4)GlcNAc
# Outline: as §1
# [8] = target: Gal(b1-4)GlcNAc(b1-3)Gal(b1-4)GlcNAc(b1-2)Man(a1-3)[Gal(b1-4)GlcNAc(b1-3)Gal(b1-4)GlcNAc(b1-2)Man(a1-6)]Man(b1-4)GlcNAc(b1-4)[Fuc(a1-6)]GlcNAc
# Outline: as §1
# [9] = target: Gal(b1-4)GlcNAc(b1-3)Gal(b1-4)GlcNAc(b1-2)[Gal(b1-4)GlcNAc(b1-3)Gal(b1-4)GlcNAc(b1-6)]Man(a1-6)[Gal(b1-4)GlcNAc(b1-3)Gal(b1-4)GlcNAc(b1-2)Man(a1-3)]Man(b1-4)GlcNAc(b1-4)GlcNAc
# Outline: as §1
# [10] = target: Gal(b1-4)GlcNAc(b1-3)Gal(b1-4)GlcNAc(b1-2)[Gal(b1-4)GlcNAc(b1-3)Gal(b1-4)GlcNAc(b1-6)]Man(a1-6)[Gal(b1-4)GlcNAc(b1-3)Gal(b1-4)GlcNAc(b1-2)Man(a1-3)]Man(b1-4)GlcNAc(b1-4)[Fuc(a1-6)]GlcNAc
# Outline: as §1
# [11] = target: Gal(b1-4)GlcNAc(b1-3)Gal(b1-4)GlcNAc(b1-3)Gal(b1-4)GlcNAc
# Outline: as §1
# [12] = target: Gal(b1-4)GlcNAc(b1-3)Gal(b1-4)GlcNAc(b1-3)Gal(b1-4)GlcNAc(b1-2)Man(a1-3)[Gal(b1-4)GlcNAc(b1-3)Gal(b1-4)GlcNAc(b1-3)Gal(b1-4)GlcNAc(b1-2)Man(a1-6)]Man(b1-4)GlcNAc(b1-4)GlcNAc
# Outline: as §1
# [13] = target: Gal(b1-4)GlcNAc(b1-3)Gal(b1-4)GlcNAc(b1-3)Gal(b1-4)GlcNAc(b1-2)Man(a1-3)[Gal(b1-4)GlcNAc(b1-3)Gal(b1-4)GlcNAc(b1-3)Gal(b1-4)GlcNAc(b1-2)Man(a1-6)]Man(b1-4)GlcNAc(b1-4)[Fuc(a1-6)]GlcNAc
# Outline: as §1
# [14] = target: Gal(b1-4)GlcNAc(b1-3)Gal(b1-4)GlcNAc(b1-3)Gal(b1-4)GlcNAc(b1-2)[Gal(b1-4)GlcNAc(b1-3)Gal(b1-4)GlcNAc(b1-3)Gal(b1-4)GlcNAc(b1-6)]Man(a1-6)[Gal(b1-4)GlcNAc(b1-3)Gal(b1-4)GlcNAc(b1-3)Gal(b1-4)GlcNAc(b1-2)Man(a1-3)]Man(b1-4)GlcNAc(b1-4)[Fuc(a1-6)]GlcNAc
# Outline: as §1
# [15] = target: Gal(b1-4)GlcNAc(b1-3)Gal(b1-4)GlcNAc(b1-3)Gal(b1-4)GlcNAc(b1-3)Gal(b1-4)GlcNAc(b1-2)Man(a1-3)[Gal(b1-4)GlcNAc(b1-3)Gal(b1-4)GlcNAc(b1-3)Gal(b1-4)GlcNAc(b1-3)Gal(b1-4)GlcNAc(b1-2)Man(a1-6)]Man(b1-4)GlcNAc(b1-4)GlcNAc
# Outline: as §1
# [16] = target: Gal(b1-4)GlcNAc(b1-3)Gal(b1-4)GlcNAc(b1-3)Gal(b1-4)GlcNAc(b1-3)Gal(b1-4)GlcNAc(b1-2)Man(a1-3)[Gal(b1-4)GlcNAc(b1-3)Gal(b1-4)GlcNAc(b1-3)Gal(b1-4)GlcNAc(b1-3)Gal(b1-4)GlcNAc(b1-2)Man(a1-6)]Man(b1-4)GlcNAc(b1-4)[Fuc(a1-6)]GlcNAc
# Outline: as §1
# [17] = target: Gal(b1-4)GlcNAc(b1-3)Gal(b1-4)GlcNAc(b1-3)Gal(b1-4)GlcNAc(b1-3)Gal(b1-4)GlcNAc(b1-2)[Gal(b1-4)GlcNAc(b1-3)Gal(b1-4)GlcNAc(b1-3)Gal(b1-4)GlcNAc(b1-3)Gal(b1-4)GlcNAc(b1-6)]Man(a1-6)[Gal(b1-4)GlcNAc(b1-3)Gal(b1-4)GlcNAc(b1-3)Gal(b1-4)GlcNAc(b1-3)Gal(b1-4)GlcNAc(b1-2)Man(a1-3)]Man(b1-4)GlcNAc(b1-4)[Fuc(a1-6)]GlcNAc
# Outline: as §1
# [18] = target: Gal(b1-4)GlcNAc(b1-3)Gal(b1-4)GlcNAc(b1-3)Gal(b1-4)GlcNAc(b1-3)Gal(b1-4)GlcNAc(b1-3)Gal(b1-4)GlcNAc(b1-2)Man(a1-3)[Gal(b1-4)GlcNAc(b1-3)Gal(b1-4)GlcNAc(b1-3)Gal(b1-4)GlcNAc(b1-3)Gal(b1-4)GlcNAc(b1-3)Gal(b1-4)GlcNAc(b1-2)Man(a1-6)]Man(b1-4)GlcNAc(b1-4)GlcNAc
# Outline: as §1
# [19] = target: Gal(b1-4)GlcNAc(b1-3)Gal(b1-4)GlcNAc(b1-3)Gal(b1-4)GlcNAc(b1-3)Gal(b1-4)GlcNAc(b1-3)Gal(b1-4)GlcNAc(b1-2)Man(a1-3)[Gal(b1-4)GlcNAc(b1-3)Gal(b1-4)GlcNAc(b1-3)Gal(b1-4)GlcNAc(b1-3)Gal(b1-4)GlcNAc(b1-3)Gal(b1-4)GlcNAc(b1-2)Man(a1-6)]Man(b1-4)GlcNAc(b1-4)[Fuc(a1-6)]GlcNAc
# Outline: as §1
# [20] = target: Gal(b1-4)GlcNAc(b1-3)Gal(b1-4)GlcNAc(b1-3)Gal(b1-4)GlcNAc(b1-3)Gal(b1-4)GlcNAc(b1-3)Gal(b1-4)GlcNAc(b1-2)[Gal(b1-4)GlcNAc(b1-3)Gal(b1-4)GlcNAc(b1-3)Gal(b1-4)GlcNAc(b1-3)Gal(b1-4)GlcNAc(b1-3)Gal(b1-4)GlcNAc(b1-6)]Man(a1-6)[Gal(b1-4)GlcNAc(b1-3)Gal(b1-4)GlcNAc(b1-3)Gal(b1-4)GlcNAc(b1-3)Gal(b1-4)GlcNAc(b1-3)Gal(b1-4)GlcNAc(b1-2)Man(a1-3)]Man(b1-4)GlcNAc(b1-4)[Fuc(a1-6)]GlcNAc
# Outline: as §1
# [21] = target: Gal(b1-4)GlcNAc(b1-3)Gal(b1-4)GlcNAc(b1-3)Gal(b1-4)GlcNAc(b1-3)Gal(b1-4)GlcNAc(b1-3)Gal(b1-4)GlcNAc(b1-3)Gal(b1-4)GlcNAc(b1-2)Man(a1-3)[Gal(b1-4)GlcNAc(b1-3)Gal(b1-4)GlcNAc(b1-3)Gal(b1-4)GlcNAc(b1-3)Gal(b1-4)GlcNAc(b1-3)Gal(b1-4)GlcNAc(b1-3)Gal(b1-4)GlcNAc(b1-2)Man(a1-6)]Man(b1-4)GlcNAc(b1-4)GlcNAc
# Outline: as §1
# [22] = target: Gal(b1-4)GlcNAc(b1-3)Gal(b1-4)GlcNAc(b1-3)GalNAc
# Outline: as §1
# [23] = target: Gal(b1-4)GlcNAc(b1-3)Gal(b1-4)GlcNAc(b1-3)[Gal(b1-4)GlcNAc(b1-3)Gal(b1-4)GlcNAc(b1-6)]GalNAc
# Outline: as §1
binder,measurement,setting,value
B1,glycan array binding signal (z-score),[1],-0.298
same,glycan array binding signal (z-score),[2],0.109
same,glycan array binding signal (z-score),[3],-1.33
same,glycan array binding signal (z-score),[4],-0.99
same,glycan array binding signal (z-score),[5],-0.125
same,glycan array binding signal (z-score),[6],1.55
same,glycan array binding signal (z-score),[7],0.469
same,glycan array binding signal (z-score),[8],0.462
same,glycan array binding signal (z-score),[9],1.86
same,glycan array binding signal (z-score),[10],0.583
same,glycan array binding signal (z-score),[11],0.154
same,glycan array binding signal (z-score),[12],0.781
same,glycan array binding signal (z-score),[13],1.19
same,glycan array binding signal (z-score),[14],-0.085
same,glycan array binding signal (z-score),[15],-0.799
same,glycan array binding signal (z-score),[16],0.949
same,glycan array binding signal (z-score),[17],0.488
same,glycan array binding signal (z-score),[18],0.294
same,glycan array binding signal (z-score),[19],-0.168
same,glycan array binding signal (z-score),[20],0.469
same,glycan array binding signal (z-score),[21],-0.052
same,glycan array binding signal (z-score),[22],0.077
same,glycan array binding signal (z-score),[23],-0.386

# Rewritten bar-delimited: entries from further up
binder | measurement | setting | value
B1 | glycan array binding signal (z-score) | [8] | 0.462
same | glycan array binding signal (z-score) | [9] | 1.86
